# Experimental data: patent US6649763B1, “Optically active quinoline carboxylic acid derivatives with 7-pyrrolidine substituents causing optical activity and a process for the preparation thereof” (Dong Wha Pharm. Ind. Co., Ltd., priority 1999, dated 2003)
# Assay: Phototoxicity test
# Format: in vivo
# Settings: CD-1 female mice, oral 50 mg/kg, UVA light source
# Protocol: It is known that the presence of a halogen atom at the 8-position of the quinolone nuclei causes phototoxicity.
# After 16 hours of starvation, CD-1 female mice were orally administered with a dose of 50 mg/kg of the compounds and allowed to be exposed for 4.5 hours to a UVA light source. The mice were located 15 cm away from the light source. Whether the mice were damaged in their ears was adopted as a main factor for the phototoxicity and determined after 24 hour and 48 hour UV exposure. The edema which the mice suffered were examined by measuring the thickness changes of their ears with the aid of electronic calipers and calculating average values. Also, an observation was made as to whether the mice suffered from erythema.
structure (smiles),measurement,value
"O=C(O)c1cn(C2CC2)c2cc(N3CCNCC3)c(F)cc2c1=O [Ciprofloxacin, ciprofloxacin]","Thickness of mice's ears after UV exposure, After 48 hr",46.0 ± 4.31
